Laboratory results from article PMC4414571, “Peptides of Presenilin-1 Bind the Amyloid Precursor Protein Ectodomain and Offer a Novel and Specific Therapeutic Approach to Reduce ß-Amyloid in Alzheimer’s Disease” (PLoS ONE, 2015).
Results are given in words; binding and its absence hold for the method and conditions named. Some results given as binding are weak or reduced against the parent protein; the word gives no strength.

Columns and labels:
[1] = molecular target: full-length human APP 695 on transfected APP-null mouse fibroblasts (human) (UniProt P05067); experiment: confocal microscopy of cells labelled with biotinylated peptide and fluorescent streptavidin; competition: biotinylated peptides first treated with purified APPs (5 uM), then added to APP-expressing cells in the usual way; only the binder purified
[2] = molecular target: full-length human APP 695 on transfected APP-null mouse fibroblasts (human) (UniProt P05067); experiment: confocal microscopy of cells labelled with biotinylated peptide and fluorescent streptavidin; APP-/- mouse fibroblasts transfected with APP695 (untransfected cells as control); biotinylated peptide 0.5-2 uM in ice-cold medium for 5 min, washed, fixed, Alexa Fluor 488 streptavidin; only the binder purified
[3] = molecular target: full-length human APP 695 on transfected APP-null mouse fibroblasts (human) (UniProt P05067); experiment: confocal microscopy of cells labelled with biotinylated peptide and fluorescent streptavidin; competition: APP-expressing cells treated with 2-fold excess unbiotinylated P4 or P8 for 5 min, then with biotinylated peptides in the usual way; only the binder purified

Measured: binding

DEEEDEEL (biotin at the NH2-terminus) [biotinylated peptide P8 (residues 66-73 of PS-1)]
binds: [1] | [2] | [3]

RRSLGHPEPLSNGRP (biotin at the NH2-terminus) [biotinylated peptide P4 (residues 41-55 of PS-1)]
binds: [1] | [2] | [3]
